Reference: doi:10.1101/2020.06.11.146753
Results are given in words; binding and its absence hold for the method and conditions named. Some results given as binding are weak or reduced against the parent protein; the word gives no strength. Where a sequence is shown, tags or fusion partners need not be part of it.

Target: T1, Bt1762 (SusD) W85A, C-terminal His6 tag (Bacteroides thetaiotaomicron VPI-5482) (UniProt Q8A6W4)
T1 sequence (chain, lipid anchor (lipoprotein)): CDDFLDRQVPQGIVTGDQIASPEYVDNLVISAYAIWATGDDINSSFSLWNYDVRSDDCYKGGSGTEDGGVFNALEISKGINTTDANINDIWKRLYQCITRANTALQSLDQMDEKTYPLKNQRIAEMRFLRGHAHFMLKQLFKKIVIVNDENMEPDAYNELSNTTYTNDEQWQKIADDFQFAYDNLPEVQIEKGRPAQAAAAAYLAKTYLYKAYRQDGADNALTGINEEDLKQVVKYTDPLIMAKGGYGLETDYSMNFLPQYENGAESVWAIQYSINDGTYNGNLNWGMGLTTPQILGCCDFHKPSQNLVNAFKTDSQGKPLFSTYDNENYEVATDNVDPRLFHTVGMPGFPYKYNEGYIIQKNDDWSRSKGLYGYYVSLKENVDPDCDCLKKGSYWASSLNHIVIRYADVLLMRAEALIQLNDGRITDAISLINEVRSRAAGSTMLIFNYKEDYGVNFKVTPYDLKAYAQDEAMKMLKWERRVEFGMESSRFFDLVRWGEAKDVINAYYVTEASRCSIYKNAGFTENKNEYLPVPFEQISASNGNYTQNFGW
Assay: co-purification by IMAC, SDS-PAGE

B1: Bt1763 (SusC) (protein, UniProt Q8A6W3 26-1041)
chain: GQNITVKGNVTSKTDGQPIIGASVVETTATTNGTITDFDGNFTLSVPVNSTLKITYIGYKPVTVKAAAIVNVLLEEDTQMVDEVVVTGYTTQRKADLTGAVSVVKVDEIQKQGENNPVKALQGRVPGMNITADGNPSGSATVRIRGIGTLNNNDPLYIIDGVPTKAGMHELNGNDIESIQVLKDAASASIYGSRAANGVIIITTKQGKKGQIKINFDASVSASMYQSKMNVLNTEQYGRAMWQAYVNDGENPNGNALGYAYNWGYNADGNPVLYGMTLSKYLDSKNTMPVADTDWFDEITRTGVIQQYNLSVSNGSEKGSSFFSLGYYKNLGVIKDTDFDRFSARMNSDYKLIDDILTIGQHFTLNRTSEVQAPGGIIETALDIPSAIPVYASDGSWGGPVGGWPDRRNPRAVLEYNKDNRYTYWRMFGDAYVNLTPFKGFNLRSTFGLDYANKQARYFTYPYQEGTQTNNGKSAVEAKQEHWTKWMWNAIATYQLEVGKHRGDVMIGMELNREDDSHFSGYKEDFSILTPDYMWPDAGSGTAQAYGAGEGYSLVSFFGKMNYSYADRYLLSLTLRRDGSSRFGKNHRYATFPSVSLGWRITQENFMKELTWLDDLKLRASWGQTGNQEISNLARYTIYAPNYGTTDSFGGQSYGTAYDITGSNGGGVLPSGFKRNQIGNDNIKWETTTQTNVGIDFSLFKQSLYGSLEYYYKKATDILTEMAGVGVLGEGGSRWINSGAMKNQGFEFNLGYRNKTAFGLTYDLNGNISTYRNEILELPETVAANGKFGGNGVKSVVGHTYGAQVGYIADGIFKSQDEVDNHATQEGAAVGRIRYRDIDHNGVIDERDQNWIYDPTPSFSYGLNIYLEYKNFDLTMFWQGVQGVDIISDVKKKSDFWSASNVGFLNKGTRLLNAWSPTNPNSDIPALTRSDTNNEQRVSTYFVENGSFLKLRNIQLGYTVPAVISKKMRMDRLRFYCSAQNLLTIKSKNFTGEDPENPNFSYPIPVNITFGLNIGF
  binding: binds
